From publication PMC6751202, “An aggregon in conductin/axin2 regulates Wnt/β-catenin signaling and holds potential for cancer therapy” (Nature Communications, 2019)
No constants are given. Whether binding was seen depends on the method and setting. For some of these results: In cells and extracts the contact can be indirect. Some binding calls cover weakened binding; strength is not graded here. For some of these results: Sequences can lack the tags named with a protein. Values belong to the molecule of their own block, whether it stands above or below them.

Chains of the proteins cited; added tags and fusions are not shown. Lines headed by an entry give the natural chain unless they say otherwise; changes in a name come on top. A line that says so, or that is headed by a name, gives the form on record, which may keep a tag or linker. Residues count along the entry.
HA-Cdt 2–345 (O88566, residues 2-345): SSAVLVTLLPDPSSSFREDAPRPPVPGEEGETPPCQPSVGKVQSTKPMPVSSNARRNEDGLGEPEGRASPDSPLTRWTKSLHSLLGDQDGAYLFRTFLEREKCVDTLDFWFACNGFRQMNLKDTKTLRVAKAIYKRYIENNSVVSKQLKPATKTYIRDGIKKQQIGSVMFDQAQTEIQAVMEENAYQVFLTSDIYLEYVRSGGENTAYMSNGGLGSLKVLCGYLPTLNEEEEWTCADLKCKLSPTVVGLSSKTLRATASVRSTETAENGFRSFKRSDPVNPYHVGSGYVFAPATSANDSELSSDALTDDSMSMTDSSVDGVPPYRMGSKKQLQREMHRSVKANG
GST-RGS Cdt (O88566, residues 67-208): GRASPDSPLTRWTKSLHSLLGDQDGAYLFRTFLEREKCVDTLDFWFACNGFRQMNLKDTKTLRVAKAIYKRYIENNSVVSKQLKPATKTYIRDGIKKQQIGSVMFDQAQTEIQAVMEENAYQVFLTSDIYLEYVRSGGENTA
in vitro-translated GFP-RGS (O88566, residues 81-200): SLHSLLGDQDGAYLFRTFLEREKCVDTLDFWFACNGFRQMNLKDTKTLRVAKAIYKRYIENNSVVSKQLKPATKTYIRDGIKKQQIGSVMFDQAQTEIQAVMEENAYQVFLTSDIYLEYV
GFP-Cdt 2–345 F112R (O88566, form named): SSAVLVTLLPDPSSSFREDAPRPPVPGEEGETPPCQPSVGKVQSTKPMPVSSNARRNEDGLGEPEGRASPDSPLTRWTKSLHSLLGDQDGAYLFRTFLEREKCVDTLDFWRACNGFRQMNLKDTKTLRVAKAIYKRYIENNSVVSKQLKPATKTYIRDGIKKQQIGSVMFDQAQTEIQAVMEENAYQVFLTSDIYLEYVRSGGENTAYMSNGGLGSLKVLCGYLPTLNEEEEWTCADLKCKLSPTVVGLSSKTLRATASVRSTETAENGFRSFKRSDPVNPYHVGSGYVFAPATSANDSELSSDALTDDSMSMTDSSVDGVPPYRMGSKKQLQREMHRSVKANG
GFP-Cdt 2–345 Y93S (O88566, form named): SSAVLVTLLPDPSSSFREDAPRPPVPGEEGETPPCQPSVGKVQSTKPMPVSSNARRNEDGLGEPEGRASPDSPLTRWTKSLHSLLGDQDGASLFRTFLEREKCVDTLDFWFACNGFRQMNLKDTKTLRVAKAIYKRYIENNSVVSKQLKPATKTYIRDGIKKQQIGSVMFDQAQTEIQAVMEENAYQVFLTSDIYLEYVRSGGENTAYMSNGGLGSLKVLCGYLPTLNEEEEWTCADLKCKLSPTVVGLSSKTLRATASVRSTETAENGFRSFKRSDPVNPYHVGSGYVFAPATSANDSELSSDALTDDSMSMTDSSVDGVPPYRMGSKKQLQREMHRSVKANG
GST-RGS Cdt QV-PS (O88566, form named): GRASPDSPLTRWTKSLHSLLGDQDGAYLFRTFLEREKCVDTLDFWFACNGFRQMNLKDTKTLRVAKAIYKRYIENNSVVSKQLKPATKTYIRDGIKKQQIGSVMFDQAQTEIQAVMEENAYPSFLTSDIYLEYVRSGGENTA

Experiments:
GFP-Cdt 2–345 (mouse) [1] = biological target: GFP-Cdt 2–345 (mouse) (UniProt O88566); experiment: native gel or EMSA; lysates of U2OS cells transfected with GFP-tagged Cdt 2–345 constructs; PAGE under non-denaturing conditions, Western blot for GFP
GFP-Cdt 2–345 (mouse) [2] = biological target: GFP-Cdt 2–345 (mouse) (UniProt O88566); experiment: sucrose density gradient ultracentrifugation; lysates of HEK293T cells transfected with GFP-Cdt 2–345 or its QV-PS mutant together with GFP; linear 12.5-50% (w/v) sucrose gradient, 50,000 r.p.m., 16 h, 25 °C; 20 fractions, Western blot for GFP
P^182–195-R9 (mouse) [3] = biological target: T1, P^182–195-R9 (mouse); experiment: far-Western, overlay or dot blot; nitrocellulose pieces spotted with 8 nmol synthetic peptide, blocked with 5% skimmed milk in PBS, incubated with lysates of transfected HEK293T cells; bound GFP proteins detected with antibodies; only the target purified
T1 sequence (peptide): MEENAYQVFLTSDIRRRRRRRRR

[4] = biological target: GFP-Cdt 2–345 F112R (mouse) (UniProt O88566); experiment: native gel or EMSA; lysates of U2OS cells transfected with GFP-tagged Cdt 2–345 constructs; PAGE under non-denaturing conditions, Western blot for GFP
[5] = biological target: GFP-Cdt 2–345 Y93S (mouse) (UniProt O88566); experiment: as above
HA-Cdt 2–345 (mouse) = HA-Cdt 2–345 (mouse) (UniProt O88566); experiment: native gel or EMSA; lysates of HEK293T cells transfected with HA-Cdt 2–345 alone or together with P^182–195; PAGE under non-denaturing conditions, Western blot for HA
P^182–195-R9 (mouse) [6] = biological target: T1, P^182–195-R9 (mouse); experiment: far-Western, overlay or dot blot; nitrocellulose pieces spotted with 8 nmol synthetic peptide, blocked with 5% skimmed milk in PBS, incubated with cell-free in vitro translated GFP-RGS (PURExpress); bound GFP protein detected with antibodies; only the target purified
GST-RGS Cdt (mouse) = GST-RGS Cdt (mouse) (UniProt O88566); experiment: pull-down; extract of HEK293T cells expressing GFP-SAMP aliquoted and supplemented with equal amounts of GST-tagged proteins and glutathione beads; rotation at 4 °C; Western blot; only the target purified
[7] = biological target: GST-RGS Cdt QV-PS (mouse) (UniProt O88566); experiment: as above

- binding (GFP-Cdt 2–345 (mouse) [1]): binds
- binding (GFP-Cdt 2–345 (mouse) [2]): binds
- binding (P^182–195-R9 (mouse) [3]): binds
Molecule: GFP-Cdt 2–345 (from UniProt O88566 2-345) (domain or fragment)

- binding [4]: binds
Molecule: GFP-Cdt 2–345 F112R (from UniProt O88566 2-345) (domain or fragment)

- binding (HA-Cdt 2–345 (mouse)): binds
Molecule: HA-Cdt 2–345 (from UniProt O88566 2-345) (domain or fragment)

The remaining lines, values behind:

Molecule: GFP-Cdt 2–345 Y93S (from UniProt O88566 2-345) (domain or fragment)
- binding [5]: binds

Molecule: in vitro-translated GFP-RGS (from UniProt O88566 81-200) (domain or fragment)
- binding (P^182–195-R9 (mouse) [6]): binds

B1: GFP-SAMP (domain or fragment, UniProt Q61315 1516-1591)
chain: QKDVELRIMPPVQENDNGNETESEQPEESNENQDKEVEKPDSEKDLLDDSDDDDIEILEECIISAMPTKSSRKAKK
- binding (GST-RGS Cdt (mouse)): binds
- binding [7]: binds

Molecule: MEENAYQVFLTSDI [peptide P^182–195]
- binding (HA-Cdt 2–345 (mouse)): binds
